Measurements taken from publication PMC11923994.
Results are given in words; binding and its absence hold for the method and conditions named. Binding seen in cells or lysates may run through a third protein. Some entries that bind do so weakly or less than the wild type.

Molecular target: T1, SOX9, P48436
T1 chain: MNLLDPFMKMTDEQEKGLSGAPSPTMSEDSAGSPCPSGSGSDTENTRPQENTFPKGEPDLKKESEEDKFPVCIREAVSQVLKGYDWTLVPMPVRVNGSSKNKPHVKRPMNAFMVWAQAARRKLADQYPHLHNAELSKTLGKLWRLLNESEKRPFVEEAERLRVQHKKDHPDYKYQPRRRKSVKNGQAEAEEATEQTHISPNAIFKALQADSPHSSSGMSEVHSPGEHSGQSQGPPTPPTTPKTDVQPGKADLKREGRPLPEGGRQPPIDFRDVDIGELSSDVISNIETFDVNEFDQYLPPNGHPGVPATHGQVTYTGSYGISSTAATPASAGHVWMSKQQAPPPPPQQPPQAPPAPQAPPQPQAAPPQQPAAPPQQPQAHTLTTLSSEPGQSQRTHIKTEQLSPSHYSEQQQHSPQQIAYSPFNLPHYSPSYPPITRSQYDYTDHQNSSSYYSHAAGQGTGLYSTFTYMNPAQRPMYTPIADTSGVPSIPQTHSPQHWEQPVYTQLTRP
Experiment: co-IP; co-immunoprecipitation (CO-IP) 'under stable conditions'; bait, cells and buffers not told in the text shown (Figure S15, Supporting Information)
Conditions: remark: other sources report otherwise

- binding: binds
B1: SIRT1, Q96EB6 1-747 (enzyme)
chain: MADEAALALQPGGSPSAAGADREAASSPAGEPLRKRPRRDGPGLERSPGEPGGAAPEREVPAAARGCPGAAAAALWREAEAEAAAAGGEQEAQATAAAGEGDNGPGLQGPSREPPLADNLYDEDDDDEGEEEEEAAAAAIGYRDNLLFGDEIITNGFHSCESDEEDRASHASSSDWTPRPRIGPYTFVQQHLMIGTDPRTILKDLLPETIPPPELDDMTLWQIVINILSEPPKRKKRKDINTIEDAVKLLQECKKIIVLTGAGVSVSCGIPDFRSRDGIYARLAVDFPDLPDPQAMFDIEYFRKDPRPFFKFAKEIYPGQFQPSLCHKFIALSDKEGKLLRNYTQNIDTLEQVAGIQRIIQCHGSFATASCLICKYKVDCEAVRGDIFNQVVPRCPRCPADEPLAIMKPEIVFFGENLPEQFHRAMKYDKDEVDLLIVIGSSLKVRPVALIPSSIPHEVPQILINREPLPHLHFDVELLGDCDVIINELCHRLGGEYAKLCCNPVKLSEITEKPPRTQKELAYLSELPPTPLHVSEDSSSPERTSPPDSSVIVTLLDQAAKSNDDLDVSESKGCMEEKPQEVQTSRNVESIAEQMENPDLKNVGSSTGEKNERTSVAGTVRKCWPNRVAKEQISRRLDGNQYLFLPPNRYIFHGAEVYSDSEDDVLSSSSCGSNSDSGTCQSPSLEEPMEDESEIEEFYNGLEDEPDVPERAGGAGFGTDGDDQEAINEAISVKQEVTDMNYPSNKS
